Data taken from CN116710484A.
No constants are given. Whether binding was seen depends on the method and setting. Some binding calls cover weakened binding; strength is not graded here.

Target: T1, mouse recombinant WARS1 protein (mouse) (UniProt P32921)
T1 sequence (looked up): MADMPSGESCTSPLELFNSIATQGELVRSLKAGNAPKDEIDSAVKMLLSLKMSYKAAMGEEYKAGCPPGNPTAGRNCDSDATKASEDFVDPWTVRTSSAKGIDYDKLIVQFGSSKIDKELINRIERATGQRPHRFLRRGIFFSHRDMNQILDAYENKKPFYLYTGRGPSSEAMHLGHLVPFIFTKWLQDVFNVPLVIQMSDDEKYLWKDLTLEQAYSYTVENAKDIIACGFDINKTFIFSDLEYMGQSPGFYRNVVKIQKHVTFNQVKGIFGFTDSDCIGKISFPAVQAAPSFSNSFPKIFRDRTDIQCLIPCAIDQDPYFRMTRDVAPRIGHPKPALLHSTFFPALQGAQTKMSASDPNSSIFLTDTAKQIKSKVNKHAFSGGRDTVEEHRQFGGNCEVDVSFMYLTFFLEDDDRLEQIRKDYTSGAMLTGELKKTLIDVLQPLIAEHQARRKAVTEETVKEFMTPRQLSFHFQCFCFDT
Experiment: immunoblot, recombinant mouse WARS1 and J774.1A culture supernatant

binding: binds
B1: GKB101 (antibody, V domains shown)
VH: EVQLLESGGGLVQPGGSLRLSCAASGFTFSSYDMSWVRQAPGKGLEWVSAISSGGSSIYYADSVKGRFTISRDNSKNTLYLQMNSLRAEDTAVYYCARDVAWDMLGDFDYWGQGTLVTVSS
VL: QSVLTQPPSASGTPGQRVTISCTGSSSNIGSNYVYWYQQLPGTAPKLLIYANSHRPSGVPDRFSGSKSGTSASLAISGLRSEDEADYYCGAWDDSLSAYVFGGGTKLTV
